Experimental data from article PMC7032926.
Results are given in words; binding and its absence hold for the method and conditions named. Binding seen in cells or lysates may run through a third protein. Some entries that bind do so weakly or less than the wild type.

The chains behind the UniProt entries cited, without tags or fusion partners. Residues count along the entry.
UniProt Q99836: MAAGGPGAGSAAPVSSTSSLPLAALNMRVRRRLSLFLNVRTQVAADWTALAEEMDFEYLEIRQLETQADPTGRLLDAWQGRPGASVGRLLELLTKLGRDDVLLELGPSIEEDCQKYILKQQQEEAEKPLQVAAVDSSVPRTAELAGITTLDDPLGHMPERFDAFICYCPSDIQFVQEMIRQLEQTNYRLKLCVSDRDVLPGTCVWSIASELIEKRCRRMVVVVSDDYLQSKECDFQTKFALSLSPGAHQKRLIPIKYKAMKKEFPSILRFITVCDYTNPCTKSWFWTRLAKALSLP
UniProt P22366: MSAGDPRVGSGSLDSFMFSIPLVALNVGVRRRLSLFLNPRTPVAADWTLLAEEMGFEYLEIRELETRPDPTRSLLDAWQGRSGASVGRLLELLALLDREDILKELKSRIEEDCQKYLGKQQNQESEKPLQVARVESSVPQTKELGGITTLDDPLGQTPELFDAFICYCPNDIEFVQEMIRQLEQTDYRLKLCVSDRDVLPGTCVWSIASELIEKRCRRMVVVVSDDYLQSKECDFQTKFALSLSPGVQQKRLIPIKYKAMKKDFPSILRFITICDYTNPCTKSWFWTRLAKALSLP
UniProt O00206, residues 24-839: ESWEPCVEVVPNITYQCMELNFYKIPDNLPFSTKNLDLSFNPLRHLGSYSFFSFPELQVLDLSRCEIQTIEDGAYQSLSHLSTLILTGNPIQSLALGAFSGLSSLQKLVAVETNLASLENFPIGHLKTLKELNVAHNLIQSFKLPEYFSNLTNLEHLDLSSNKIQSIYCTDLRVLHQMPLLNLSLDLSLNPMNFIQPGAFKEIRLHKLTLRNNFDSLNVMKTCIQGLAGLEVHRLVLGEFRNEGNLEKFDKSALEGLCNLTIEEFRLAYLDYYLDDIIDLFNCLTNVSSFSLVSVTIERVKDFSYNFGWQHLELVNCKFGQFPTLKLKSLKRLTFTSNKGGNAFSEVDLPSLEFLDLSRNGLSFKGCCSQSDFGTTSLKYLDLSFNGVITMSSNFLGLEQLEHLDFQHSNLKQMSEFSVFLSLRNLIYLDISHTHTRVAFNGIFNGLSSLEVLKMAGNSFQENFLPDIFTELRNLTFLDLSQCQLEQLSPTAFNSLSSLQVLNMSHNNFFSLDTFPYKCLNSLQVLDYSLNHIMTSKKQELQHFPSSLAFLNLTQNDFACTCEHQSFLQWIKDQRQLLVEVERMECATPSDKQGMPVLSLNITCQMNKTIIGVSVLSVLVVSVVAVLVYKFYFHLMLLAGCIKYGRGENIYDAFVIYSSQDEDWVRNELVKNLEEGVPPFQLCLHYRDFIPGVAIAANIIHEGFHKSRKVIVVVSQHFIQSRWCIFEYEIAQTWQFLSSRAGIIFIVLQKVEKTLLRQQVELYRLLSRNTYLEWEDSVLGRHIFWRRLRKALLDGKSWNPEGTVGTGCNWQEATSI
UniProt Q9QUK6, residues 26-835: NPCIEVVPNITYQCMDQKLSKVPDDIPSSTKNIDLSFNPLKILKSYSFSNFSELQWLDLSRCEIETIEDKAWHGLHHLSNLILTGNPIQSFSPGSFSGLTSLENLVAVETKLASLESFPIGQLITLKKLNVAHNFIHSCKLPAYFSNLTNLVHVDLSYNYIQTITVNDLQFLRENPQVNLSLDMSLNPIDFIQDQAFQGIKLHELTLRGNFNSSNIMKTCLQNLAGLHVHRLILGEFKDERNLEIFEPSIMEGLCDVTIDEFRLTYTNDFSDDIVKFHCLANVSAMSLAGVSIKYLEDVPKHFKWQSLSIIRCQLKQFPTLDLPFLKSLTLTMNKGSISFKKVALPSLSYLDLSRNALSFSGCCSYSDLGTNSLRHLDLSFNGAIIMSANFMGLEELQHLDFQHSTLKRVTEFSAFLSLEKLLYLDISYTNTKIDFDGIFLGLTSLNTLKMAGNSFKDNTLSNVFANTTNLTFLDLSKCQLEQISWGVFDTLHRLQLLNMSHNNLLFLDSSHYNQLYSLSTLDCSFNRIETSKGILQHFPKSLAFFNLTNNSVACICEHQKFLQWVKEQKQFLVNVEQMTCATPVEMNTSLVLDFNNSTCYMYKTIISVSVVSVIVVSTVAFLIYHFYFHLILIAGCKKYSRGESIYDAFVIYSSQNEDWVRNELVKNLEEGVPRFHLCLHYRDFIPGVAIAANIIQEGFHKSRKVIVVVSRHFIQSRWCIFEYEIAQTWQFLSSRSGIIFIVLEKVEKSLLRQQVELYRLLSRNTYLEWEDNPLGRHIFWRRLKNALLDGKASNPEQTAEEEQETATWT

Assays:
[1] = target: MYD88 (human, endogenous in primary monocyte-derived macrophages) (human (endogenous in monocyte-derived macrophages)) (UniProt Q99836); assay: co-IP; endogenous proteins in primary human monocyte-derived macrophages after LPS exposure; immunoblot
[2] = target: MyD88 (mouse, endogenous in bone marrow derived macrophages) (mouse (endogenous in BMDM)) (UniProt P22366); assay: co-IP; endogenous proteins in lysates of primary murine BMDM (wildtype C57BL/6; for IRAK4 also Tlr5-deficient) after 100 ng/mL ultrapure LPS for indicated times; lysis in 0.5% TritonX-100, 20 mM HEPES pH 7.4, 150 mM NaCl, 1.5 mM MgCl2, 2 mM EGTA; protein G-Sepharose; immunoblot

Row | Substance | binding [1] | binding [2]
1 | TLR4 (human, endogenous in primary monocyte-derived macrophages) (from UniProt O00206 24-839) (receptor) | binds | 
2 | TLR4 (mouse, endogenous in bone marrow derived macrophages) (from UniProt Q9QUK6 26-835) (receptor) |  | binds
